At least one structure is not confirmed: it was looked up by name or label, or the drawing left a doubt.
What was measured:
Slc4a1 (AE1) = molecular target: T1, Slc4a1 (AE1) (Mus musculus, UniProt P04919); experiment: AE1 YFP quenching assay in COS-7 cells (70-mM SCN− gradient); format: cell-based, murine; details: 25 μM
T1 construct: host or cells: COS-7 fibroblasts, transient (Lipofectamine 2000), with YFP
T1 sequence (P04919 1-929): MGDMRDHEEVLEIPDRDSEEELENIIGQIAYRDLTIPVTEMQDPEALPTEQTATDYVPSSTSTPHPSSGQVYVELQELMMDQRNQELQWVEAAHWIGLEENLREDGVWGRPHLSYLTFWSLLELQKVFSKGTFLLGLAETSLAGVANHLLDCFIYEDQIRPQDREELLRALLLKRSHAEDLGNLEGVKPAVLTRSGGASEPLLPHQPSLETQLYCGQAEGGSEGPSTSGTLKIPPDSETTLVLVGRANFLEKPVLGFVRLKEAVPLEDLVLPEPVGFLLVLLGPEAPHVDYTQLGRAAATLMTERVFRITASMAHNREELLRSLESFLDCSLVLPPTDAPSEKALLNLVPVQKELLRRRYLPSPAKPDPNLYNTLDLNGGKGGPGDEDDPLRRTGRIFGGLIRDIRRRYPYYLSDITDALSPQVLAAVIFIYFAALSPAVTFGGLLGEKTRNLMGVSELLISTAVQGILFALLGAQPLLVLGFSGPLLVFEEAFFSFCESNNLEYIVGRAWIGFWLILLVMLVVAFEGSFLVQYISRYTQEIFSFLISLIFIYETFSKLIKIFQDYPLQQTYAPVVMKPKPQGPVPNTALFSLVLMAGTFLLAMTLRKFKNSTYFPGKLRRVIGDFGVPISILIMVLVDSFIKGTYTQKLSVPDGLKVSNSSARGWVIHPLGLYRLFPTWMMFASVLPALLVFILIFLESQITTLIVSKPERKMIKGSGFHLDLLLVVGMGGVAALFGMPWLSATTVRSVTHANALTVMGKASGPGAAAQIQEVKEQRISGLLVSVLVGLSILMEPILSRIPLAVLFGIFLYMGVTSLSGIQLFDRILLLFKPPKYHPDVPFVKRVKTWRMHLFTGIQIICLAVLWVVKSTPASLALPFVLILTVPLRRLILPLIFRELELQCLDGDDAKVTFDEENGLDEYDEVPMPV

[1] = test system: chronically furosemide-treated mice; experiment: Chronic furosemide treatment model in mice; format: in vivo; details: 10 mg/kg after 8 days furosemide
Experimental: Because chronic loop diuretic treatment upregulates renal pendrin expression, which might potentiate the diuretic efficacy of pendrin inhibition, the action of PDSinh-C01 in a chronic furosemide treatment model.
In chronic studies, mice were injected with 20 mg/kg furosemide (ip) twice a day for 8 days and then administered PDSinh-C01 (10 mg/kg) or vehicle at the time of the final furosemide dose. Urine was collected for 3 h as described above.
After 8 days of furosemide treatment, PDSinh-C01 further potentiated the furosemide effect.

murine pendrin = molecular target: T2, murine pendrin (Mus musculus, UniProt Q9R155); experiment: YFP fluorescence quenching assay of Cl− exchange with I−, SCN− or NO3− in FRT cells expressing murine pendrin; format: cell-based; details: concentration-dependent
T2 construct: expressed in transfected cells
T2 sequence (Q9R155 1-780): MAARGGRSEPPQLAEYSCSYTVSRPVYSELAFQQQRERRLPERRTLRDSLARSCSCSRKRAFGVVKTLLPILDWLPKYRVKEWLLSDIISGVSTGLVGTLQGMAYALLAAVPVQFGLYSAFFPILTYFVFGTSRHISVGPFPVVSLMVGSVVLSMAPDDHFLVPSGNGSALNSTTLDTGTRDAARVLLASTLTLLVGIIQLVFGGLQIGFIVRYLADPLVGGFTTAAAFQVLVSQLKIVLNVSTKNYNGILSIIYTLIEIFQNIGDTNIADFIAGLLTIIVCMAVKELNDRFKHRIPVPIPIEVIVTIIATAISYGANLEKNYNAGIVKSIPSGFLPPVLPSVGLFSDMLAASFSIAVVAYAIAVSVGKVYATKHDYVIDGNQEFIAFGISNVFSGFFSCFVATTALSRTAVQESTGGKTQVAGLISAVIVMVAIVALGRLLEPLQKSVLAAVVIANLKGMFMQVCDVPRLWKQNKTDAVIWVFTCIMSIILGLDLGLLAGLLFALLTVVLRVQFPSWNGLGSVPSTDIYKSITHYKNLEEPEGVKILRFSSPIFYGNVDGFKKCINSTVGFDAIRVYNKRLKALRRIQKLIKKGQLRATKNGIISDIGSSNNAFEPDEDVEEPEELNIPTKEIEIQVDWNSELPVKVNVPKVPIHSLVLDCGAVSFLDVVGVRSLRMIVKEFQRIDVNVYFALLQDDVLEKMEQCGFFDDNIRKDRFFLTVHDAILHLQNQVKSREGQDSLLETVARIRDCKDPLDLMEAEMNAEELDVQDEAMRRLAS

Cc1n[nH]c(-c2cc(S(=O)(=O)NC3CCCc4ccccc43)c(C)s2)c1C (centres unmarked) [PDSinh-C01]
inhibition of Slc4a1 (AE1) transport activity (Slc4a1 (AE1)): did not significantly inhibit
urinary K+ excretion [1]: significantly increased
urinary Na+ excretion [1]: significantly increased
urine osmolality [1]: without effect
effect on rate of fluorescence quenching (Cl− exchange with I−, SCN− or NO3−) (murine pendrin): reduced the rate of fluorescence quenching

From patent US10702506B2, “Small molecule inhibitors of pendrin ion exchange and pharmaceutical compositions” (THE REGENTS OF THE UNIVERSITY OF CALIFORNIA, priority 2016, dated 2020)
